{"source": "PubChem BioAssay AID1117269 | University of Michigan | 2014", "purpose": "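Kinases whose silencing alters a TGF-beta responsive luciferase reporter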 (primary screen)", "system": "human A549 lung cancer and 1833 breast cancer (MDA-MB-231-derived) cell lines carrying a stable BTR luciferase reporter", "knock-down reagent": "siRNA pool against human genes", "time to read-out": "72 h after transfection, then 1 h TGF-beta before the read", "conditions": "TGF-beta 10 ng/mL added one hour before luciferin and read-out", "detection": "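BTR reporter bioluminescence as fold change relative to non-targeting siRNA, averaging triplicates per line; knockdown for 72 h, then TGF-beta at 10 ng/mL 1 h prior to reading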", "direction": "fold over scrambled siRNA, A549 and fold over scrambled siRNA, 1833: higher = more reporter light, weaker TGF-beta receptor signalling", "rule for the call": "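Active if a hit in A549 or 1833; a line's hit exceeds an upper quartile-based cutoff on mean log fold values, applied per plate and across the whole screen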", "calls": "active = hit in at least one line; inactive = hit in neither line", "note": "The deposit covers 714 reagents; below is an unselected part. 49 of all reagents (6.9%) count as active. 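Active means a hit in at least one line; per-line hit columns show which; some siRNA pools appear more than once.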 Not stated in the record: the amount of reagent."}
{"gene symbol":"EFNA3 (ephrin A3)","fold over scrambled siRNA, A549":1.95,"fold over scrambled siRNA, 1833":8.57,"hit in A549":"not a hit in A549","hit in 1833":"not a hit in 1833","outcome":"inactive"}
{"gene symbol":"MAP3K20 (mitogen-activated protein kinase kinase kinase 20)","fold over scrambled siRNA, A549":6.35,"fold over scrambled siRNA, 1833":10.2,"hit in A549":"hit in A549","hit in 1833":"not a hit in 1833","outcome":"active"}
{"gene symbol":"CSNK1E (casein kinase 1 epsilon)","fold over scrambled siRNA, A549":1.86,"fold over scrambled siRNA, 1833":4.48,"hit in A549":"not a hit in A549","hit in 1833":"not a hit in 1833","outcome":"inactive"}
{"gene symbol":"PHKA1 (phosphorylase kinase regulatory subunit alpha 1)","fold over scrambled siRNA, A549":0.942,"fold over scrambled siRNA, 1833":2.21,"hit in A549":"not a hit in A549","hit in 1833":"not a hit in 1833","outcome":"inactive"}
{"gene symbol":"TEC (tec protein tyrosine kinase)","fold over scrambled siRNA, A549":3.26,"fold over scrambled siRNA, 1833":1.65,"hit in A549":"not a hit in A549","hit in 1833":"not a hit in 1833","outcome":"inactive"}
{"gene symbol":"BUB1 (BUB1 mitotic checkpoint serine/threonine kinase)","fold over scrambled siRNA, A549":8.93,"fold over scrambled siRNA, 1833":13.2,"hit in A549":"hit in A549","hit in 1833":"hit in 1833","outcome":"active"}
{"gene symbol":"VRK1 (VRK serine/threonine kinase 1)","fold over scrambled siRNA, A549":2.66,"fold over scrambled siRNA, 1833":0.852,"hit in A549":"not a hit in A549","hit in 1833":"not a hit in 1833","outcome":"inactive"}
{"gene symbol":"MAPK9 (mitogen-activated protein kinase 9)","fold over scrambled siRNA, A549":5.9,"fold over scrambled siRNA, 1833":5.67,"hit in A549":"hit in A549","hit in 1833":"not a hit in 1833","outcome":"active"}
{"gene symbol":"HIPK1 (homeodomain interacting protein kinase 1)","fold over scrambled siRNA, A549":3.29,"fold over scrambled siRNA, 1833":5.93,"hit in A549":"not a hit in A549","hit in 1833":"not a hit in 1833","outcome":"inactive"}
{"gene symbol":"RPS6KA5 (ribosomal protein S6 kinase A5)","fold over scrambled siRNA, A549":2.33,"fold over scrambled siRNA, 1833":5.5,"hit in A549":"not a hit in A549","hit in 1833":"not a hit in 1833","outcome":"inactive"}
{"gene symbol":"TESK2 (testis associated actin remodelling kinase 2)","fold over scrambled siRNA, A549":3.16,"fold over scrambled siRNA, 1833":7.33,"hit in A549":"not a hit in A549","hit in 1833":"not a hit in 1833","outcome":"inactive"}
{"gene symbol":"CDKN1B (cyclin dependent kinase inhibitor 1B)","fold over scrambled siRNA, A549":0.804,"fold over scrambled siRNA, 1833":2.79,"hit in A549":"not a hit in A549","hit in 1833":"not a hit in 1833","outcome":"inactive"}
{"gene symbol":"CALM2 (calmodulin 2)","fold over scrambled siRNA, A549":1.33,"fold over scrambled siRNA, 1833":2.57,"hit in A549":"not a hit in A549","hit in 1833":"not a hit in 1833","outcome":"inactive"}
{"gene symbol":"HASPIN (histone H3 associated protein kinase)","fold over scrambled siRNA, A549":3.48,"fold over scrambled siRNA, 1833":2.93,"hit in A549":"not a hit in A549","hit in 1833":"not a hit in 1833","outcome":"inactive"}
{"gene symbol":"MAPK11 (mitogen-activated protein kinase 11)","fold over scrambled siRNA, A549":1.12,"fold over scrambled siRNA, 1833":1.64,"hit in A549":"not a hit in A549","hit in 1833":"not a hit in 1833","outcome":"inactive"}
{"gene symbol":"DGKB (diacylglycerol kinase beta)","fold over scrambled siRNA, A549":2.22,"fold over scrambled siRNA, 1833":2.33,"hit in A549":"not a hit in A549","hit in 1833":"not a hit in 1833","outcome":"inactive"}
{"gene symbol":"PIK3C3 (phosphatidylinositol 3-kinase catalytic subunit type 3)","fold over scrambled siRNA, A549":4.2,"fold over scrambled siRNA, 1833":1.67,"hit in A549":"not a hit in A549","hit in 1833":"not a hit in 1833","outcome":"inactive"}
{"gene symbol":"DGUOK (deoxyguanosine kinase)","fold over scrambled siRNA, A549":1.78,"fold over scrambled siRNA, 1833":5.38,"hit in A549":"not a hit in A549","hit in 1833":"not a hit in 1833","outcome":"inactive"}
{"gene symbol":"MAGI2","fold over scrambled siRNA, A549":2.02,"fold over scrambled siRNA, 1833":1.95,"hit in A549":"not a hit in A549","hit in 1833":"not a hit in 1833","outcome":"inactive"}
{"gene symbol":"PRKAG2 (protein kinase AMP-activated non-catalytic subunit gamma 2)","fold over scrambled siRNA, A549":1.7,"fold over scrambled siRNA, 1833":3.39,"hit in A549":"not a hit in A549","hit in 1833":"not a hit in 1833","outcome":"inactive"}
{"gene symbol":"MPP2 (MAGUK p55 scaffold protein 2)","fold over scrambled siRNA, A549":2.42,"fold over scrambled siRNA, 1833":1.71,"hit in A549":"not a hit in A549","hit in 1833":"not a hit in 1833","outcome":"inactive"}
{"gene symbol":"EFNA4 (ephrin A4)","fold over scrambled siRNA, A549":1.02,"fold over scrambled siRNA, 1833":0.619,"hit in A549":"not a hit in A549","hit in 1833":"not a hit in 1833","outcome":"inactive"}
{"gene symbol":"MAP3K13 (mitogen-activated protein kinase kinase kinase 13)","fold over scrambled siRNA, A549":1.38,"fold over scrambled siRNA, 1833":7.14,"hit in A549":"not a hit in A549","hit in 1833":"not a hit in 1833","outcome":"inactive"}
{"gene symbol":"CDKN2C (cyclin dependent kinase inhibitor 2C)","fold over scrambled siRNA, A549":0.779,"fold over scrambled siRNA, 1833":2.87,"hit in A549":"not a hit in A549","hit in 1833":"not a hit in 1833","outcome":"inactive"}
{"gene symbol":"UCKL1 (uridine-cytidine kinase 1 like 1)","fold over scrambled siRNA, A549":0.952,"fold over scrambled siRNA, 1833":1.47,"hit in A549":"not a hit in A549","hit in 1833":"not a hit in 1833","outcome":"inactive"}
{"gene symbol":"STK38 (serine/threonine kinase 38)","fold over scrambled siRNA, A549":2.48,"fold over scrambled siRNA, 1833":1.75,"hit in A549":"not a hit in A549","hit in 1833":"not a hit in 1833","outcome":"inactive"}
{"gene symbol":"PFKM (phosphofructokinase, muscle)","fold over scrambled siRNA, A549":1.95,"fold over scrambled siRNA, 1833":2.38,"hit in A549":"not a hit in A549","hit in 1833":"not a hit in 1833","outcome":"inactive"}

Records listed so far whose gene name starts with H or h (2):
{"gene symbol":"HIPK1 (homeodomain interacting protein kinase 1)","fold over scrambled siRNA, A549":3.29,"fold over scrambled siRNA, 1833":5.93,"hit in A549":"not a hit in A549","hit in 1833":"not a hit in 1833","outcome":"inactive"}
{"gene symbol":"HASPIN (histone H3 associated protein kinase)","fold over scrambled siRNA, A549":3.48,"fold over scrambled siRNA, 1833":2.93,"hit in A549":"not a hit in A549","hit in 1833":"not a hit in 1833","outcome":"inactive"}
